US20240402190A1
Results are given in words; binding and its absence hold for the method and conditions named. Binding seen in cells or lysates may run through a third protein. Some binding calls cover weakened binding; strength is not graded here.

Chains of the proteins cited; added tags and fusions are not shown. Lines headed by an entry give the natural chain unless they say otherwise; changes in a name come on top. A line that says so, or that is headed by a name, gives the form on record, which may keep a tag or linker. Residues count along the entry.
Sarcoplasmic/endoplasmic reticulum calcium ATPase 1a (SERCA1a), rabbit (P04191, form named): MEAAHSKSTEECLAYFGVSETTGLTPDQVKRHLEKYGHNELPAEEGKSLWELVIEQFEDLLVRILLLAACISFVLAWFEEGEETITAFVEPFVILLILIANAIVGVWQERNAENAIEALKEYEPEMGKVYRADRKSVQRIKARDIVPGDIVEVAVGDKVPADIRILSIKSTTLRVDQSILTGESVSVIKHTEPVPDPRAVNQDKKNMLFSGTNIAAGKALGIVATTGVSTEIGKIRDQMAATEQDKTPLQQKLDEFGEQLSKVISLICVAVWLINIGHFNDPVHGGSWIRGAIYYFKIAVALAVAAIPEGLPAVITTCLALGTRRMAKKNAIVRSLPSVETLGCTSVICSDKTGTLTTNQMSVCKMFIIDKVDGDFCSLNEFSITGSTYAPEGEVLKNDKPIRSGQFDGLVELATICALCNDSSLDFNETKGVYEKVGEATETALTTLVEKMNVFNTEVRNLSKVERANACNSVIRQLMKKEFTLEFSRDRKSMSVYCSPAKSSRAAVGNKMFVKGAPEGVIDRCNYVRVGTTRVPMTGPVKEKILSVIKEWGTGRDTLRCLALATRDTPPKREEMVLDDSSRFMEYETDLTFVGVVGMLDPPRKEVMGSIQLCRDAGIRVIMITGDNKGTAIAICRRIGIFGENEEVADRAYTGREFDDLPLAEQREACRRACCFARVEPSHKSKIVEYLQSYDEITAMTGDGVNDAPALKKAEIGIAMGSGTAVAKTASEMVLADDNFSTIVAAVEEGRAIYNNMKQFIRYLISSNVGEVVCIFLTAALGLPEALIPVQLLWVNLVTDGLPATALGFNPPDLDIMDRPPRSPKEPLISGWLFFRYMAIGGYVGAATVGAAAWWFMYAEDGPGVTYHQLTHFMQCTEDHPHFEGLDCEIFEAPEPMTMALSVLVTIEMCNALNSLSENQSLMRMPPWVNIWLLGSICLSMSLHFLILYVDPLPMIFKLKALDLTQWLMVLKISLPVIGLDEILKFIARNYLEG
UniProt Q13049, residues 358-653: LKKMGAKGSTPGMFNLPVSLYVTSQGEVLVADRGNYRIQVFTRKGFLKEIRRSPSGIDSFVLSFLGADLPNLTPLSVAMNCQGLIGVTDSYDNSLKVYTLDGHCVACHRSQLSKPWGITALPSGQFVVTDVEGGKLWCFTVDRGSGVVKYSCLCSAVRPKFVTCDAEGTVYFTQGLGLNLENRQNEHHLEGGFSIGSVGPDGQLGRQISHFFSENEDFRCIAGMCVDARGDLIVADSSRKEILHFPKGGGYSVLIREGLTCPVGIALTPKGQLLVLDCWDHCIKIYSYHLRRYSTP

Target: Sarcoplasmic/endoplasmic reticulum calcium ATPase 1a (SERCA1a), rabbit (Rabbit) (UniProt P04191)
Assay: GST pull-down from rabbit triad sample, Coomassie staining, MALDI-TOF/TOF

GST-linked NHL repeat protein (GST-NHL) (from UniProt Q13049 358-653)
binding: binds
